Assay results reported in the supplement of paper PMC6445147.
Single values of this data set are uncertain.

B1: human tRNA-Pro; a variant is named by its letters at N, in order (parent)
chain: GGCTCGTTGGTCTAGNGGTATGATTCTCGCTTAGGGTGCGAGAGGTCCCGGGTTCNNATCCCGGACGAGCCC

Variants of: B1
Test: tRNA 3' processing efficiency (processed reads / all reads, maximum-likelihood estimate) (fraction); higher = more efficient 3' processing
Conditions: HEK293T; construct: no Pol-II promoter ((-)CMV library)

For GGCTCGTTGGTCTAGGGGACTGATTCTCGCTTAGGGTGCGAGAGGTCCCGGGTACAAACCCCGGACGAGCCC, which “tRNA 3' processing efficiency” value is on record?
Its value is 0.57.

For GGCTCGTTGGTCTAGCGGCATGATTCTCGCTTAGGGTGCGAGAGGTCCCGGGTTCAGATCCCGGACGAGCCC, which “tRNA 3' processing efficiency” value is on record?
The value was 0.06.

For GGCTCGTTGGTCTAGTAGTATGATTCTCGCTTAGGGTGCGAGAGGTCCCGGGTTCTCATCCCGGACGAGCCC, which “tRNA 3' processing efficiency” value is on record?
The value was 0.73.

Which “tRNA 3' processing efficiency” value does the source give for GGCTCGTTGGTCTAGAGGAATGATTCTCGCTTAGGGTGCGAGAGGTCCCGGGTTCTACTCCCGGACGAGCCC here?
Its value is 0.4.

Which “tRNA 3' processing efficiency” value does the source give for GGCTCGTTGGTCTTCCGGGATGATTCTCGCTTAGGGTGCGAGAGGTCCCGGGTTCAAATCCCGGACGAGCCC here?
The value was 0.36.

With GGCTCGTTGGTCTCATGGTATGATTCTCGCTTAGGGTGCGAGAGGTCCCGGGATCTAATCCCGGACGAGCCC as the variant, how does the “tRNA 3' processing efficiency” value read?
The value was 0.5.

Which “tRNA 3' processing efficiency” value does the source give for GGCTCGTTAGTCTAGGTGTATGATTCTCGCTTAGGGTGCGAGAGGTCCCGGGTTCAAACCCCGGACGAGCCC here?
Its value is 0.4.

Which “tRNA 3' processing efficiency” value does the source give for GGCTCGTTGGTCTCGCGGGATGATTCTCGCTTAGGGTGCGAGAGGTCCCGGGTTCTAATCCCGGACGAGCCC here?
Its value is 0.33.

With GGCTCGTCAGTCTAGGGGTATGATTCTCGCTTAGGGTGCGAGAGGTCCCGGGTTCTACTCCCGGACGAGCCC as the variant, how does the “tRNA 3' processing efficiency” value read?
Its value is 0.17.

Which “tRNA 3' processing efficiency” value does the source give for GGCTCGTCGGTCTAGTGGTATGATTCTCGCTTAGGGTGCGAGAGGTCCCGCGTTCAAATCCCGGACGAGCCC here?
The value was 0.5.

Which “tRNA 3' processing efficiency” value does the source give for GGCTCGTTGGTCTAGAGGACTGATTCTCGCTTAGGGTGCGAGAGGTCCCGGGTTCAAAACCCGGACGAGCCC here?
The value was 0.43.

With GGCTCGTTGGTCTAGGGGTGTGATTCTCGCTTAGGGTGCGAGAGGTCCCGGGGTCAAGACCCGGACGAGCCC as the variant, how does the “tRNA 3' processing efficiency” value read?
Its value is 0.25.

With GGCTCGTTGGTCTAGTGGCCTGATTCTCGCTTAGGGTGCGAGAGGTCCCGGGTTCAGTTCCCGGACGAGCCC as the variant, how does the “tRNA 3' processing efficiency” value read?
The value was 0.2.

Which “tRNA 3' processing efficiency” value does the source give for GGCTCGTTGGTCTACGGATTTGATTCTCGCTTAGGGTGCGAGAGGTCCCGGGTTCTAATCCCGGACGAGCCC here?
Its value is 0.33.

For GGCTCGTTAGTCTGGGGGAATGATTCTCGCTTAGGGTGCGAGAGGTCCCGGGTTCAAATCCCGGACGAGTCC, which “tRNA 3' processing efficiency” value is on record?
The value was 0.5.

Which “tRNA 3' processing efficiency” value does the source give for GGCTCGTTGGTCTACTGGTATGATTCTCGCTTAGGGTGCGAGAGGTCCCGGGGTCTAATCCCGGACGAGCCC here?
The value was 0.33.

Which “tRNA 3' processing efficiency” value does the source give for GGCTCGTTGGTCTTGGGGTCTGATTCTCGCTTAGGGTGCGAGAGGTCCCGGGTTCTAACCCCGGACGAGCCC here?
Its value is 0.5.

For GGCTCGTTGGTCTAGCGGTGTGATTCTCGCTTAGGGTGCGAGAGGTCCCGGGTTCAATACCCGGACGAGCCC, which “tRNA 3' processing efficiency” value is on record?
Its value is 0.4.

With GGCTCGTTGGTCTAGCGGTATGATTCTCGCTTAGGGTGCGAGAGGTCCCGGGTTGAAAACCCGGACGAGCCC as the variant, how does the “tRNA 3' processing efficiency” value read?
The value was 0.29.

With GGCTCGTTGGTCTAGAGGTGTGATTCTCGCTTAGGGTGCGAGAGGTCCCGGGTTCAATACCCGGACGAGCCC as the variant, how does the “tRNA 3' processing efficiency” value read?
The value was 0.5.

Which “tRNA 3' processing efficiency” value does the source give for GGCTCGTTGGTCTATGAGTATGATTCTCGCTTAGGGTGCGAGAGGTCCCGGGTTCGCTTCCCGGACGAGCCC here?
The value was 0.4.

With GGCTCGTTGGTCTAGGGGATTGATTCTCGCTTAGGGTGCGAGAGGTCCCGGGTTCTGATCCCGGACGAGCCC as the variant, how does the “tRNA 3' processing efficiency” value read?
The value was 0.25.

With GGCTCGTTGGTCTAGCGGCATGATTCTCGCTTAGGGTGCGAGAGGTCCCGGGTACTAATCCCGGACGAGCCC as the variant, how does the “tRNA 3' processing efficiency” value read?
The value was 0.45.

For GGCTCGTTGGTCTAGTGGTATGATTCTCGCTTAGGGTACGAGAGGTCCCGGGTTCAAAACCCGGACGAGCCC, which “tRNA 3' processing efficiency” value is on record?
Its value is 0.25.

For GGCTCGTTGGTCTAGTGGTATGATTCTCGCTTAGGGTGCGAGAGGTCCCGGGATCCAACCCCGGACGAGCCC, which “tRNA 3' processing efficiency” value is on record?
The value was 0.17.

For GGCTCGTTGGTCTAGGGGGATGATTCTCGCTTAGGGTGCGAGAGGTCCCGGGATCGCGGCCCGGACGAGCCC, which “tRNA 3' processing efficiency” value is on record?
The value was 0.2.

With GGCTCGTTGGTCTAAAGGTTTGATTCTCGCTTAGGGTGCGAGAGGTCCCGGGTTCAGACCCCGGACGAGCCC as the variant, how does the “tRNA 3' processing efficiency” value read?
Its value is 0.55.

With GGCTCGTTGGTCTATCGGTATGATTCTCGCTTAGGGTGCGAGAGGTCCCGGGTTCACTTCCCGGACGAGCCC as the variant, how does the “tRNA 3' processing efficiency” value read?
The value was 0.29.

Which “tRNA 3' processing efficiency” value does the source give for GGCTCGTTGGTCTGGGCGTATGATTCTCGCTTAGGGTGCGAGAGGTCCCGGGGTCTAGTCCCGGACGAGCCC here?
The value was 0.17.

With GGCTCGTCGGTCTAGGGGAATGATTCTCGCTTAGGGTGCGAGAGGTCCCGGGTTCTGAGCCCGGACGAGCCC as the variant, how does the “tRNA 3' processing efficiency” value read?
The value was 0.33.

Which “tRNA 3' processing efficiency” value does the source give for GGCTCGTTGGTCTAGTGGCATGATTCTCGCTTAGGGTGCGAGAGGTCCCGGGTTCTGATCCCGGACGAGCCC here?
Its value is 0.14.

With GGCTCGTTGGTCTGGCGGACTGATTCTCGCTTAGGGTGCGAGAGGTCCCGGGTTCAAAGCCCGGACGAGCCC as the variant, how does the “tRNA 3' processing efficiency” value read?
Its value is 0.5.

For GGCTCGTTGGTCTAGGGGTTTGATTCTCGCTTAGGGTGCGAGAGGTCCCGGGTTTGAAACCCGGACGAGCCC, which “tRNA 3' processing efficiency” value is on record?
The value was 0.62.

Which “tRNA 3' processing efficiency” value does the source give for GGCTCGTCGGTCTATCGGGATGATTCTCGCTTAGGGTGCGAGAGGTCCCGGGTTCCAATCCCGGACGAGCCC here?
Its value is 0.25.

With GGCTCGTGGGTCTAGCGGAATGATTCTCGCTTAGGGTGCGAGAGGTCCCGGGTTCTAGTCCCGGACGAGCCC as the variant, how does the “tRNA 3' processing efficiency” value read?
Its value is 0.43.

For GGCTCGTTAGTCTATGGATTTGATTCTCGCTTAGGGTGCGAGAGGTCCCGGGTTCGAAGCCCGGACGAGCCC, which “tRNA 3' processing efficiency” value is on record?
Its value is 0.25.

Which “tRNA 3' processing efficiency” value does the source give for GGCTCGTTGGTCTATGGCTATGATTCTCGCTTAGGGTGCGAGAGGTCCCGGGTTCGGAGCCCGGACGAGCCC here?
Its value is 0.13.

With GGCTCGTCGGTCTGGGGGTATGATTCTCGCTTAGGGTGCGAGAGGTCCCGGGTTCATGTCCCGGACGAGCCC as the variant, how does the “tRNA 3' processing efficiency” value read?
The value was 0.5.
